Results are given in words; binding and its absence hold for the method and conditions named. Binding seen in cells or lysates may run through a third protein. These calls come from enrichment with a bait or labelling near it, and not all partners need be listed.
Target: T1, Centriolar coiled-coil protein 110 (CP110), endogenous, MEF cells (mouse (endogenous in MEF)) (UniProt Q7TSH4)
T1 sequence: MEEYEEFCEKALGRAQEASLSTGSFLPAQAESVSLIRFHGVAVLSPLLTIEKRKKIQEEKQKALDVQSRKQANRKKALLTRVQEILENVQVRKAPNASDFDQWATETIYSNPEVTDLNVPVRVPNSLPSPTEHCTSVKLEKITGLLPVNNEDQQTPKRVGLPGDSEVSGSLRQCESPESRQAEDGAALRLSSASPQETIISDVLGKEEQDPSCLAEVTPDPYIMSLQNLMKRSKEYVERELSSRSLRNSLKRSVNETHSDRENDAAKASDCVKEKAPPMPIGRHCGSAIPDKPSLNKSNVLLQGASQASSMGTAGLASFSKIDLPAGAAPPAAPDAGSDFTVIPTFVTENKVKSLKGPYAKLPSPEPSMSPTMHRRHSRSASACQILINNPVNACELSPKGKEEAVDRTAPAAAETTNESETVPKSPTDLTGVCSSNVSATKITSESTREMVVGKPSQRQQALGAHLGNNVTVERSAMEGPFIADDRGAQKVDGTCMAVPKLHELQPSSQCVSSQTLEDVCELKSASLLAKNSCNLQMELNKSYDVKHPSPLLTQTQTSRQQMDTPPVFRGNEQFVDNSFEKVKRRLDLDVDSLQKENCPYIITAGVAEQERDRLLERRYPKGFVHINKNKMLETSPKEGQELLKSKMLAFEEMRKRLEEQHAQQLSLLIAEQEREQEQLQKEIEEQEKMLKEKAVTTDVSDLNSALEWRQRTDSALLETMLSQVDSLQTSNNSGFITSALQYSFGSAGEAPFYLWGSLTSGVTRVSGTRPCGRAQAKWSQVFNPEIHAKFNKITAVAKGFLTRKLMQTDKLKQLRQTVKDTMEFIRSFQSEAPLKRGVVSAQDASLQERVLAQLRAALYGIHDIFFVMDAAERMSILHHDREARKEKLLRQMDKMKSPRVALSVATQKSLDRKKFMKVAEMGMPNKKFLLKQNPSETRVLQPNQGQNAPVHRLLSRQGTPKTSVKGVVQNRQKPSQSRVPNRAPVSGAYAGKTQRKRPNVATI
Test: affinity purification with mass spectrometry; proteins co-immunoprecipitated with anti-CP110 or anti-LC3 antibodies in MEF cells, trypsin digestion, LC-MS/MS

binding: binds
B1: GST-NudCL2 (natural protein, mouse, UniProt Q9CQ48 1-157, looked up)
chain: MSAPFEERSGVVPCGTPWGQWYQTLEEVFIEVQVPPGTRAQDIQCGLQSRHVALAVGGREILKGKLFDSTIADEGTWTLEDRKMVRIVLTKTKRDAANCWTSLLESEYAADPWVQDQMQRKLTLERFQKENPGFDFSGAEISGNYTKGGPDFSNLEK
notes: Full-length mouse NudCL2 amplified from total cDNA by RT-PCR and cloned into pGEX5X-1; also called purified GST-NudCL2; source: Escherichia coli BL21, purified
